Laboratory results published in paper PMC9610606, “Design, Synthesis, In Silico Testing, and In Vitro Evaluation of Thiazolidinone-Based Benzothiazole Derivatives as Inhibitors of α-Amylase and α-Glucosidase” (Pharmaceuticals, 2022).
pIC50: −log10 of the molar value. The structures given here were assigned with low confidence; some may be wrong.

Protein sequences, listed by entry. Tags and fused reporters are not part of them. Residues count along the entry.
UniProt P00690, 16-511 limits assumed: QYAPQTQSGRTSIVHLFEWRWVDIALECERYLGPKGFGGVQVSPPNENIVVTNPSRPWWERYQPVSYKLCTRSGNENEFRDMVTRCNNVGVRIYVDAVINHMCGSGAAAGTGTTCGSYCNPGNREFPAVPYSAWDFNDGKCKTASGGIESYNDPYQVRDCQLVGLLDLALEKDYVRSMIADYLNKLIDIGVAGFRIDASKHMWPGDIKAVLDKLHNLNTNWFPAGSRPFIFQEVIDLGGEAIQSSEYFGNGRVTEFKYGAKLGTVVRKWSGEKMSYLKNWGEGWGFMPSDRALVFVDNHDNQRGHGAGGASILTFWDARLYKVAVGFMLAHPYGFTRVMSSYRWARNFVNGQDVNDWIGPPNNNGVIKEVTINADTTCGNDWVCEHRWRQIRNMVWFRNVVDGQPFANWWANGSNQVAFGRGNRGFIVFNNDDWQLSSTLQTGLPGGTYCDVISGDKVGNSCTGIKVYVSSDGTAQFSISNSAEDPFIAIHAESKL
UniProt P53341, whole entry: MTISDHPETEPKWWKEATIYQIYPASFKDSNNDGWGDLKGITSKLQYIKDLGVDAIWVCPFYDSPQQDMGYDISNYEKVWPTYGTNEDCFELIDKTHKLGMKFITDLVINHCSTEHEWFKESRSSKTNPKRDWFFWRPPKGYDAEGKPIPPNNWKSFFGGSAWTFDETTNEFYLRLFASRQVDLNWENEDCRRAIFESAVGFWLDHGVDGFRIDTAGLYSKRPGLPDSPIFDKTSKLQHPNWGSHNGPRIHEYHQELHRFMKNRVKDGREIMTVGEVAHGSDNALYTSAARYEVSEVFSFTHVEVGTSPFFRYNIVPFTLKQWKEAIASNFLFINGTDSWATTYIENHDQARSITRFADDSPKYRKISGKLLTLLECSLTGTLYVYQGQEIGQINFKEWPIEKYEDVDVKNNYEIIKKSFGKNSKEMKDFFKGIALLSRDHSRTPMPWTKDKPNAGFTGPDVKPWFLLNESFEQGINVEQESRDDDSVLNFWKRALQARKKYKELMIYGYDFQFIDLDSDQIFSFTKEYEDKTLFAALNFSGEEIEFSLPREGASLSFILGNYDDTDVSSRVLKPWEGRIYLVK

What was measured:
[1] = target: α-amylase (Sus scrofa, UniProt P00690); assay: In vitro α-amylase inhibitory assay; assay type: biochemical; settings: read-out: α-Amylase IC50
[2] = target: α-glucosidase (Saccharomyces cerevisiae, UniProt P53341); settings: read-out: α-Glucosidase IC50

Row | Compound | pIC50 [1] | pIC50 [2]
1 | O=C1N/C(=N/c2nccs2)S/C1=C\c1cc2scnc2c(Cl)c1[N+](=O)[O-] | 5.00 | –
2 | O=C1N/C(=N/c2nccs2)S/C1=C\c1cc(F)c2ncsc2c1 | 5.62 | 5.46
3 | O=C1N/C(=N/c2nccs2)S/C1=C\c1cc2scnc2cc1F | 5.64 | 5.32
4 | O=C1N/C(=N/c2nccs2)S/C1=C\c1c(O)cc2ncsc2c1Cl | 5.10 | 5.01
5 | O=C1N/C(=N/c2nccs2)S/C1=C\c1cc(O)c2ncsc2c1O | 5.41 | 5.35
6 | O=C1N/C(=N/c2nccs2)S/C1=C\c1cc(O)c2ncsc2c1Cl | 4.99 | 4.95
7 | O=C1N/C(=N/c2nccs2)S/C1=C\c1cc([N+](=O)[O-])c2ncsc2c1 | 5.18 | 5.14
8 | COc1cc2ncsc2c(O)c1/C=C1\S/C(=N\c2nccs2)NC1=O | 4.94 | 4.90
9 | O=C1N/C(=N/c2nccs2)S/C1=C\c1cc2scnc2c(Cl)c1Cl | 4.88 | 4.86
10 | O=C1N/C(=N/c2nccs2)S/C1=C\c1ccc2ncsc2c1Cl | 5.01 | 4.98
